{"sequences": {"note": "The chains behind the UniProt entries cited, without tags or fusion partners. Where a name states a change or a piece, a line headed by the entry shows the natural chain unless it says otherwise.", "UniProt C7C422": "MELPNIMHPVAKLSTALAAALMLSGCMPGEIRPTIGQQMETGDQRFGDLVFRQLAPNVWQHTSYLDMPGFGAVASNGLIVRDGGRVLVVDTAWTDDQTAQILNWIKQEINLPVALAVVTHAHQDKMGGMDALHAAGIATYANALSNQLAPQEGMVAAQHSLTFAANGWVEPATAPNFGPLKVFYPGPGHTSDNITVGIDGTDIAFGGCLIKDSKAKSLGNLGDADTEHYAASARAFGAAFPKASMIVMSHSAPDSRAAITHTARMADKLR"}, "source": "PubChem BioAssay AID1794844", "about": "(National Center for Advancing Translational Sciences (NCATS), 2023)", "note": "Out of some 2,800 compounds screened, fewer than 10 were called active. About 7% were inconclusive and are not listed. The call rests on the fitted dose curve; in most records, active means well fitted inhibition curve with a large enough effect; inconclusive means small, poorly fitted or top-dose-only effect; inactive means no such curve, though single readings can be large or run the other way. This is one part of the list. Potency means the concentration at half of the fitted maximal effect.", "data": [{"target": "Metallo-beta-lactamase type 2 (Klebsiella pneumoniae) (UniProt C7C422)", "assay": "qHTS to identify inhibitors of the New Delhi Metallo-beta-lactamase (NDM): Nitrocefin screen against the machine-based learning selections; on activity, negative = inhibition: % of control where 0% means no effect.", "conditions": "NDM-1 enzyme, nitrocefin hydrolysis, absorbance 485 nm; activity, negative = inhibition: at the top concentration", "in_short": "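NDM-1 (2 nM final) in 50 mM HEPES pH 7.0, 1 uM Zn2SO4, 0.01% Tween20 was preincubated with compounds for >30 min. Nitrocefin (16.7 uM final) was read at 485 nm after 15 min, and meropenem (50 uM final) at 300 nm after 30 min.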", "values": [{"smiles": "COc1ccc(CNC(=O)C[C@@H]2C[C@H]3O[C@H](CNC4CCNCC4)[C@@H](O)[C@H]3O2)cc1", "activity, negative = inhibition": "inactive: -9.78% [at 57.5 µM]"}, {"smiles": "C=CCCC(CN1CCCOCC1)Oc1ccc(-c2ccccc2)nn1", "note": "(configuration not stated)", "activity, negative = inhibition": "inactive: -13.9%"}, {"smiles": "COc1ccc(CN[C@H]2[C@H](O)[C@@H](N(C)CCc3ccccn3)[C@@H]3OC[C@H]2O3)cc1", "activity, negative = inhibition": "inactive: 6.01% [at 57.5 µM]"}, {"smiles": "Cc1noc2c(Nc3ccc(C(N)=O)cc3)cc(-c3ccsc3)nc12", "activity, negative = inhibition": "inactive: -0.904% [at 57.5 µM]"}, {"smiles": "COc1ccc(NC2CCCN(C(=O)c3ccc(S(N)(=O)=O)cc3)C2)cc1", "note": "(configuration not stated)", "activity, negative = inhibition": "inactive: -12.7%"}, {"smiles": "Cc1nc(C)c(C(=O)NCC(=O)N2CCCCCNC(=O)CC2c2ccccc2)s1", "note": "(configuration not stated)", "activity, negative = inhibition": "inactive: 0.516%"}, {"smiles": "COc1ccc(CN2CC3(CCN(C(=O)Cc4c[nH]c5ccccc45)CC3)C2=O)cc1", "activity, negative = inhibition": "inactive: 2.17%"}, {"smiles": "O=C(O)CN1CCC[C@]2(C(=O)O)CN(Cc3cccc(O)c3)CC[C@@H]12", "Potency": "active: 3.35 µM"}, {"smiles": "CN(Cc1ccc(F)cc1)c1ccc2ncc(Nc3cccc(N[S+](C)(=O)[O-])c3)n2n1", "activity, negative = inhibition": "inactive: -27.5%"}, {"smiles": "Cc1nc(C2CCCCN2C(=O)Cc2ccccc2)n[nH]1", "note": "(configuration not stated)", "activity, negative = inhibition": "inactive: 8.61%"}, {"smiles": "COc1ccc(C(=O)Nc2ccc(-c3noc([C@@H]4CCCN4CCCc4ccccc4)n3)cn2)cc1", "activity, negative = inhibition": "inactive: 2.67%"}, {"smiles": "O=C(Cc1c[nH]c2ncc(-c3cccc(OC(F)(F)F)c3)cc12)NCc1cccnc1", "activity, negative = inhibition": "inactive: 3.6% [at 57.5 µM]"}, {"smiles": "COC(=O)[C@H]1CN(C(C)=O)CCN1C(C)=O", "activity, negative = inhibition": "inactive: -2.17% [at 76.7 µM]"}, {"smiles": "Cc1ccc2c(c1)nc1n2[C@@H](CNCc2nccn2C)COC1", "activity, negative = inhibition": "inactive: -3.82% [at 57.5 µM]"}, {"smiles": "COc1ccc(-c2nc3ccncc3[nH]2)cc1", "activity, negative = inhibition": "inactive: -12.9% [at 76.7 µM]"}, {"smiles": "CN1C[C@@H](NC(=O)c2ccc(C(C)(C)C)cc2)C[C@H]1c1nc(-c2ccc3c(c2)OCO3)no1", "activity, negative = inhibition": "inactive: 0.308%"}, {"smiles": "O=C1CC2CCCC(C1)N2C(=O)c1cccc(Br)c1", "activity, negative = inhibition": "inactive: -0.0617% [at 57.5 µM]"}, {"smiles": "O=C(N[C@H]1C[C@@H]2C(=O)N[C@H]3CCN(C(=O)c4cccs4)[C@@H]3C(=O)N2C1)C1CCCC1", "activity, negative = inhibition": "inactive: -4.3% [at 57.5 µM]"}, {"smiles": "CCc1cc(C(=O)NCc2cc3n(n2)CCCN(S(C)(=O)=O)C3)cs1", "activity, negative = inhibition": "inactive: -6.41%"}, {"smiles": "CC(C)(O)CCc1cccc(C(=O)N[C@H]2CCC[C@H]2C(N)=O)c1", "activity, negative = inhibition": "inactive: -3.93%"}, {"smiles": "CC1=C[C@@H](CNCCN(C)C)[C@H](C(C)C)C[C@H]1Cc1nnc(C(C)(C)C)o1", "activity, negative = inhibition": "inactive: 4.1% [at 57.5 µM]"}, {"smiles": "c1cncc(CN2CCC[C@H]2c2nc(-c3ccc(-n4ccnc4)nc3)no2)c1", "activity, negative = inhibition": "inactive: -6.33% [at 57.5 µM]"}, {"smiles": "O=C(Cc1c[nH]c2ncc(-c3ccccc3)cc12)NC1CC1", "activity, negative = inhibition": "inactive: 9.86% [at 76.7 µM]"}, {"smiles": "Cn1cccc1C(=O)C(=O)N1CCC(O)(CN2CCOCC2)C(C)(C)C1", "note": "(configuration not stated)", "activity, negative = inhibition": "inactive: -1.49%"}, {"smiles": "COc1c(C)cccc1-c1nc(C2CCOC2)no1", "note": "(configuration not stated)", "activity, negative = inhibition": "inactive: 0.0925%"}, {"smiles": "CCCC(c1cccs1)n1cc(-c2cncnc2)nn1", "note": "(configuration not stated)", "activity, negative = inhibition": "inactive: -2.72%"}, {"smiles": "O=C(COc1ccccc1)NC[C@H]1Cn2c(-c3ccc(Cl)cc3)cnc2CO1", "activity, negative = inhibition": "inactive: -19.3% [at 57.5 µM]"}]}]}
